Primary screen of a compound library

The values are deposited in ChEMBL (CHEMBL3988442, “University of Dundee, Small-Polar-MMV Screening Library” (2021)).

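Viability assay of Plasmodium falciparum sporozoites; the read-out is not stated. The concentration is filed as 10 mM, unlikely as a test dose, so the dose is not known. The record gives no direction; compounds that gave an IC50 in retests scored well above the rest, so higher reads as lower viability. Strong results were mostly tested again. Of about 34,000 compounds tested this way, about 280 (0.84%) reached 50% or more in at least one test.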

Values are the deposited “Percent Effect”, in %. The controls that fix the scale are not given in the record; negative values are as filed. This is an unselected part of the compounds tested. Two or more numbers in one place are separate tests of the same structure; such repeats can differ widely.

For CN(C)c1cc2c(nn1)CCN(C(=O)C1Cc3ccccc3S1)C2 (stereo unspecified) the result was -3.372%. Cc1cc(C(=O)N2CCC3(CC2)C(=O)N(C)CCN3CC2CC2)c(C)o1.O=C(O)C(F)(F)F read -14.68%. CC1CN(C)c2ccccc2CN1C(=O)c1ccncc1 (stereo unspecified) gave -9.327%. COc1ccccc1[C@@H]1CN(Cc2cc(C(C)(C)C)[nH]n2)C[C@H]1C(=O)O read -12.09%. CN(C)CCCNC(=O)CNC(=O)N1CCc2c([nH]c3ccccc23)C1 read -14.21% and -12.24% and 3.947%. With Cc1cc(C)c2[nH]c(C(=O)NCCN3CCCC3=O)c(C)c2c1 the screen gave -8.91%. For Cc1ccc(Cl)cc1S(=O)(=O)NCc1cnc(N(C)C)n1C the result was -4.72%. For O=S(=O)(NCc1ccccc1)Nc1cccc(Cn2cncn2)c1 the result was -14.62%.

With CN(C)CCOCC1CN(Cc2ccoc2)Cc2nnn(C)c21.O=C(O)C(F)(F)F.O=C(O)C(F)(F)F (stereo unspecified) the screen gave -3.65%. With CCN(C(=O)Nc1cc(C)on1)C(C)c1cccc(O)c1 (stereo unspecified) the screen gave -15.58% and -19.43%. For COCCC(=O)N1CCOCC2(CCN(Cc3cccs3)C2)C1.O=C(O)C(F)(F)F (stereo unspecified) the result was -1.012%. Result for CCCn1cc(NC(=O)c2ccc(S(=O)(=O)CC)cc2)ccc1=O was 13.95%. CCn1cc2c(n1)C(COC)CN(Cc1ccccn1)C2 (stereo unspecified) read -3.02%. Result for CN(C)CCNCC1(O)CCCN(Cc2cccc(F)c2F)C1=O (stereo unspecified) was 6.036%. CNC(=O)C1(CCCc2ccncc2)CCCCN1.Cl (stereo unspecified) read -7.524%. With CC(=O)NC1CCCN(C(=O)Nc2cccnc2-n2cccn2)C1 (stereo unspecified) the screen gave -4.732%.

N#Cc1ccccc1OCCN1CCC(N2CCNC2=O)CC1 read -7.435%. Cn1cc(C2CC(=O)NC23CCN(C(=O)Cc2ccccn2)CC3)cn1.O=C(O)C(F)(F)F (stereo unspecified) read 5.734%. Result for Cc1[nH]c2ccccc2c1-c1ccnc(N[C@H](CO)CC(C)C)n1 was 14.48%. With CCCN1CCC(Nc2nc(CC)ns2)CC1 the screen gave -12.84%. Result for O=C(c1cc(=O)c(OCc2ccccc2F)co1)N1CCSCC1 was 3.179%. CC(C)Cc1noc(CN2CCN(S(C)(=O)=O)CC2)n1 read 2.808%. Result for c1ccc(-c2cc(CN3CCCC(Cn4cncn4)C3)on2)cc1 (stereo unspecified) was 6.887%. For CCOc1cccc(C(C)NCc2ccc(OC)c(OC)c2OC)c1 (stereo unspecified) the result was -11.8%.

For O=C(NC1(c2cccc(F)c2)CCOCC1)c1cc[nH]n1 the result was -8.724%. For O=C(NC1CC1)C1(Cc2cc(-c3ccc(F)cc3F)no2)CCOCC1 the result was 2.682%. With CC(C)n1ccnc1CN1CCOC(C)(C(=O)N2CCOCC2)C1 (stereo unspecified) the screen gave 3.797%. Result for Cc1nc2ccc(Cl)cn2c1CN1CCN(S(=O)(=O)N2CCCC2)CC1 was -223.1%. Cc1ccoc1C(=O)N1Cc2c(CN3CCCCC3)nn(C)c2C1.O=CO gave -25.62%. Result for Cc1nc(CN2CCCC(CCc3cccc(C(F)(F)F)c3)C2)co1 (stereo unspecified) was -2.007%. With [H][C@@]12C[C@H](C(=O)N3CCCCO3)CN(C(=O)c3ccncc3)[C@]1([H])CCO2 the screen gave -10.5%. CNc1cc(CNC(=O)c2cccnc2)nc(-c2ccncc2)n1 gave 4.017%.

CCN1CCN(C(C)CNC(=O)Nc2nc3ccccc3s2)CC1 (stereo unspecified) read -1.695%. Cc1cc(N(C)Cc2noc(C)n2)n2nc(C)c(C)c2n1 read -2.016%. O=C(O)CC(O)(CC(=O)O)C(=O)O.OCCN(Cc1ccncc1)CC1(c2ccc(Cl)cc2)CCCC1 read -0.7104%. For CN(CC(=O)NCc1cccnc1N1CCCCC1)C(=O)c1cccs1 the result was 9.081%.

For reference, 4 entries once more:

* CNC(=O)C1(CCCc2ccncc2)CCCCN1.Cl (stereo unspecified) | -7.524%
* O=S(=O)(NCc1ccccc1)Nc1cccc(Cn2cncn2)c1 | -14.62%
* O=C(c1cc(=O)c(OCc2ccccc2F)co1)N1CCSCC1 | 3.179%
* CN(C)CCNCC1(O)CCCN(Cc2cccc(F)c2F)C1=O (stereo unspecified) | 6.036%